No constants are given. Whether binding was seen depends on the method and setting. Binding calls can cover weak binding; strength is not graded here.
Target: ino2 (An02g04350p), bHLH transcription factor of Aspergillus niger (Aspergillus niger) (UniProt A2QCQ1)
Assay: two-hybrid; pGBKT7 baits in S. cerevisiae Y2HGold mated with pGADT7 preys in S. cerevisiae Y187; mated strains plated on DDO (SD/-Leu/-Trp), positive colonies inoculated on QDO/X/A (SD/-Ade/-His/-Leu/-Trp with X-a-Gal and Aureobasidin A)

binding: binds
Substance: Opi1p (An15g02370p) of Aspergillus niger (from UniProt A2R518)

From article PMC6962311
